Data taken from patent US20110135647A1.
Results are given in words; binding and its absence hold for the method and conditions named. In cells and extracts the contact can be indirect. Some results given as binding are weak or reduced against the parent protein; the word gives no strength. For part of these data: Sequences can lack the tags named with a protein. One block for each substance: values may come before it.

The chains behind the UniProt entries cited, without tags or fusion partners. Where a name states a change or a piece, a line headed by the entry shows the natural chain unless it says otherwise.
UniProt Q9NZJ0: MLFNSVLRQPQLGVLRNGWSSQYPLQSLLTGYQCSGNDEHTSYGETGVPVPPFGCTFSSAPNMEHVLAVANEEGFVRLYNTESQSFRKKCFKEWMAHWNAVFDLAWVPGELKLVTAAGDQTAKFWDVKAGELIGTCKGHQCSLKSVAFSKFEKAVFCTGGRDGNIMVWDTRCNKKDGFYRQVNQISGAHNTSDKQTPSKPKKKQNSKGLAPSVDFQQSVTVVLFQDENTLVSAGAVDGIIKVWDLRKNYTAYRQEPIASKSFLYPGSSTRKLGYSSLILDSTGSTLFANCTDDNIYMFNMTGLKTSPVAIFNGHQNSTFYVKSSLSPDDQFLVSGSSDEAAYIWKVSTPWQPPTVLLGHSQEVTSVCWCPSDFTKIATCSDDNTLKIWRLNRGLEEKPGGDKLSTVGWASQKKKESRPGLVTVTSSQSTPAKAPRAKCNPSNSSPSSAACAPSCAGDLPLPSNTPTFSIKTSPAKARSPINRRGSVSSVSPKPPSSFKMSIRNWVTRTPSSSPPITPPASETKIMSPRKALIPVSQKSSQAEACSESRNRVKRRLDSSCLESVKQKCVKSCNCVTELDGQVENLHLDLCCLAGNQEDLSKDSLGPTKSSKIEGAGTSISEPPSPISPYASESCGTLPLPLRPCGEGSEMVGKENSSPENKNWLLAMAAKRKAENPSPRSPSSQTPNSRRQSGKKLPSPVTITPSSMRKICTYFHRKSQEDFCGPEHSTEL
UniProt Q5TH69: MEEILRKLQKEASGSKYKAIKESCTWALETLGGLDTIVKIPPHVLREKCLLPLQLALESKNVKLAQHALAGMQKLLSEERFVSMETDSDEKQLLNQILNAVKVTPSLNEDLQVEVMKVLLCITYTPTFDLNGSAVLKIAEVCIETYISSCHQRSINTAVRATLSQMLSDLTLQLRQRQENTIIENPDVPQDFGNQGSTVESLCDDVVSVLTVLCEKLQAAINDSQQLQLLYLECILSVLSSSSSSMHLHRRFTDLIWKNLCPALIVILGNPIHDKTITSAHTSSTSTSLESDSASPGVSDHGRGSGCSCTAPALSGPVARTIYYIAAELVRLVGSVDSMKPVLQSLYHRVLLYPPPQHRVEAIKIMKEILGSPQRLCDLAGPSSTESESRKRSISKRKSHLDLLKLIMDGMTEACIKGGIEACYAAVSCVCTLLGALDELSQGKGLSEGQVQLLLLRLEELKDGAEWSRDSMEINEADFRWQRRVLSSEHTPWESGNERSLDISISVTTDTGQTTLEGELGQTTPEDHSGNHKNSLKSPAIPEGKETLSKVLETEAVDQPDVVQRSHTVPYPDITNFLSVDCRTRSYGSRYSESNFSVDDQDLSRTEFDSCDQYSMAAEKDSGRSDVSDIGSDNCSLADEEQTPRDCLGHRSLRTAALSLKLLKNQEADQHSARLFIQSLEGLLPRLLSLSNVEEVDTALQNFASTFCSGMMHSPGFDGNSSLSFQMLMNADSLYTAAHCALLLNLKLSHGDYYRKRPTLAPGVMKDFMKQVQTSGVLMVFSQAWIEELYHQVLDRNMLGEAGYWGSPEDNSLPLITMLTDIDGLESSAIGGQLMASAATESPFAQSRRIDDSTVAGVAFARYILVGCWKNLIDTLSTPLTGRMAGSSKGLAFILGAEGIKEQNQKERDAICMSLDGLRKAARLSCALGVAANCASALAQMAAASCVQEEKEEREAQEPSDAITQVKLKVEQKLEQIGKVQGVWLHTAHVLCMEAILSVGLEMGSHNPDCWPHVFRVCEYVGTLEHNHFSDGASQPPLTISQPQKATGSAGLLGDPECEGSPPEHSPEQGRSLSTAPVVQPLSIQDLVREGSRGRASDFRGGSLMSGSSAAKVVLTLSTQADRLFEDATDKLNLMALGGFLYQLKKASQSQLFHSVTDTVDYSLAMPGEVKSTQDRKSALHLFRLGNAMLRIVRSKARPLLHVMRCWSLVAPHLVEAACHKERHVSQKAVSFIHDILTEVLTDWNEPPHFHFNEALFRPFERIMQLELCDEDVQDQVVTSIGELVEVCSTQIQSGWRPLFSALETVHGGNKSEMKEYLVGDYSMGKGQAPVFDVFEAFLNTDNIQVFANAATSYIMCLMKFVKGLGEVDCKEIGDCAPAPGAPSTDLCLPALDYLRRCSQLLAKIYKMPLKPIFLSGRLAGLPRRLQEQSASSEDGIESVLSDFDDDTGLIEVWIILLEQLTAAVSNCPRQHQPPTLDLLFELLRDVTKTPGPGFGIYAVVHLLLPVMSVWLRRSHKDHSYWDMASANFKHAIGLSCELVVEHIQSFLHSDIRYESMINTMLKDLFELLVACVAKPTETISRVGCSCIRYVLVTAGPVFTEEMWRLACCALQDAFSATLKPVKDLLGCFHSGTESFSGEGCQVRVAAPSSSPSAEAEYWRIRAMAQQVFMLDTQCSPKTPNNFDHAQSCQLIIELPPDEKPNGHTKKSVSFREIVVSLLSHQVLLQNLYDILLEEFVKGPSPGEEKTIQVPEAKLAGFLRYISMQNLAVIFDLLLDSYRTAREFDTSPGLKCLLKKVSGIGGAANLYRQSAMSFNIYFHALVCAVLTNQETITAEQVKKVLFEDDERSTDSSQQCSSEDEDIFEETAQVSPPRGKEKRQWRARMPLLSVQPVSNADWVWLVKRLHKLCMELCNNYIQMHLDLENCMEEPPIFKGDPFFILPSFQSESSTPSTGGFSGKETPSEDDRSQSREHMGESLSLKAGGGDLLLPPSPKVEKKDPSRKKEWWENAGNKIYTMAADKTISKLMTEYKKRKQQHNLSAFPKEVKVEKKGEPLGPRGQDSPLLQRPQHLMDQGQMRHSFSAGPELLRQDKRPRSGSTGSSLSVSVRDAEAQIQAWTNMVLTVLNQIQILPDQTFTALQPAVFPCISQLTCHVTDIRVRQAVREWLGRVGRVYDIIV
UniProt Q96GD4: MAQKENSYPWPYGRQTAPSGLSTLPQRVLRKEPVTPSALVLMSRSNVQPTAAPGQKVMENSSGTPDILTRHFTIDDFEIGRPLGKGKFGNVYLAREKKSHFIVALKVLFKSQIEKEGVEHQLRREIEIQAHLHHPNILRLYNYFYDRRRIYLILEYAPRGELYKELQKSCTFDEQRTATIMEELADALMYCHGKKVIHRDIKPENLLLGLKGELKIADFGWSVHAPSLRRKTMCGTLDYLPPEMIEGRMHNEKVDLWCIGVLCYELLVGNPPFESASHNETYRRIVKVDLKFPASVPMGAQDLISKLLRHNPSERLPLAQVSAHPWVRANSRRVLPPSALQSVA
UniProt P62136: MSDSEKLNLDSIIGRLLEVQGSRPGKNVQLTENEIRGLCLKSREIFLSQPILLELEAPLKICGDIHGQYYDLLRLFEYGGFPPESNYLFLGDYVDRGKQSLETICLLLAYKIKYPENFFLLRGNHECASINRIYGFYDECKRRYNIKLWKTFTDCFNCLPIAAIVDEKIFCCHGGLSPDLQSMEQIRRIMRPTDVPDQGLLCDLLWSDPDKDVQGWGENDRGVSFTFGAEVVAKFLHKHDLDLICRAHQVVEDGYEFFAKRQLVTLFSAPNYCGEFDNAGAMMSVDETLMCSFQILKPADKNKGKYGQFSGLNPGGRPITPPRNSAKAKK
UniProt O35129: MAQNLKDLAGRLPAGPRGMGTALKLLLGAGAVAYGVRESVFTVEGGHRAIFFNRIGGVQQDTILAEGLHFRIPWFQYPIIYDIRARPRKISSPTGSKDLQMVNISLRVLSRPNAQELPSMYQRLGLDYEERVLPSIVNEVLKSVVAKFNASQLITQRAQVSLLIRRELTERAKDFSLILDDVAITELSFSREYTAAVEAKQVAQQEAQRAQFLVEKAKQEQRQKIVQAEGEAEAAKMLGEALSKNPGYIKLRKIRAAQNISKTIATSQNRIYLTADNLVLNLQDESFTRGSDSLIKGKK

What was measured:
[1] = biological target: HA-tagged PHB2/REA (PHB2/REA-HA; pCAGGSnHC-PHB2/REA) (human); assay: conclusion from the co-immunoprecipitations in COS-7 cells
[2] = biological target: HA-tagged PHB2/REA (PHB2/REA-HA; pCAGGSnHC-PHB2/REA) (human); assay: co-immunoprecipitation from co-transfected COS-7 cells, both directions
[3] = biological target: HA-tagged PHB2/REA (PHB2/REA-HA; pCAGGSnHC-PHB2/REA) (human); assay: co-immunoprecipitation from co-transfected COS-7 cells, anti-FLAG IP, anti-HA blot
[4] = biological target: HA-tagged F3374 (HA-F3374; pCAGGSn-F3374-HA) (human) (UniProt Q9NZJ0); assay: co-immunoprecipitation
[5] = biological target: HA-tagged F3374 (HA-F3374; pCAGGSn-F3374-HA) (human) (UniProt Q9NZJ0); assay: co-immunoprecipitation from co-transfected HEK293T cells, anti-Flag IP, anti-HA blot
[6] = biological target: HA-tagged F3374 (HA-F3374; pCAGGSn-F3374-HA) (human) (UniProt Q9NZJ0); assay: co-immunoprecipitation from co-transfected HEK293T cells, anti-Flag or normal mouse IgG IP, anti-HA blot
[7] = biological target: T1, HA-tagged PBK/TOPK (HA-PBK/TOPK), wild type (human) (UniProt Q96KB5); assay: GST pull-down from co-transfected COS-7 cells
T1 sequence: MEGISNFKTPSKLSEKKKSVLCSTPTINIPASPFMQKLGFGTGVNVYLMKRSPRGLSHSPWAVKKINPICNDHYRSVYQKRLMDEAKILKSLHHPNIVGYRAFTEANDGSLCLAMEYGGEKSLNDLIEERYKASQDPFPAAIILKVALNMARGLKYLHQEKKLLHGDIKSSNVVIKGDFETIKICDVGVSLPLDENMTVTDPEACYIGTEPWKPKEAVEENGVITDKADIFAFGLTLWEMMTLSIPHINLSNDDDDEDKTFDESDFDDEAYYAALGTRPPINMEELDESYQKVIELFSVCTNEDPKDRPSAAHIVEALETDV

[8] = biological target: T1, HA-tagged PBK/TOPK (HA-PBK/TOPK), wild type (human); assay: GST pull-down and anti-HA immunoprecipitation from co-transfected COS-7 cells
[9] = biological target: FLAG-tagged A7322 (A7322-FLAG; pCAGGSn3FC-A7322) (human) (UniProt Q5TH69); assay: co-immunoprecipitation from co-transfected COS-7 cells, anti-HA IP, anti-FLAG blot

binding [1]: binds
binding [2]: binds
binding [3]: binds
Substance: FLAG-tagged A7322 (A7322-FLAG; pCAGGSn3FC-A7322) (from UniProt Q5TH69 1-2177)

binding [4]: binds
binding [5]: binds
binding [6]: binds
Substance: Flag-tagged AURKB (Flag-AURKB; pCAGGSn-AURKB-3F) (from UniProt Q96GD4 1-344) (enzyme)

binding [7]: binds
binding [8]: binds
Substance: GST-tagged PP1α (GST-PP1α) (from UniProt P62136 1-330) (enzyme)

binding [9]: binds
Substance: HA-tagged PHB2/REA (PHB2/REA-HA; pCAGGSnHC-PHB2/REA) (from UniProt O35129 1-299)
